Results are given in words; binding and its absence hold for the method and conditions named. Binding seen in cells or lysates may run through a third protein. A yes stands for co-enrichment or nearness to the bait. Other partners may have been found. For some of these results: No binding means not detected with the bait. For some of these results: Where a sequence is shown, tags or fusion partners need not be part of it.
T1: LAP-tagged NCBP3 (C17orf85) (UniProt Q53F19)
T1 sequence: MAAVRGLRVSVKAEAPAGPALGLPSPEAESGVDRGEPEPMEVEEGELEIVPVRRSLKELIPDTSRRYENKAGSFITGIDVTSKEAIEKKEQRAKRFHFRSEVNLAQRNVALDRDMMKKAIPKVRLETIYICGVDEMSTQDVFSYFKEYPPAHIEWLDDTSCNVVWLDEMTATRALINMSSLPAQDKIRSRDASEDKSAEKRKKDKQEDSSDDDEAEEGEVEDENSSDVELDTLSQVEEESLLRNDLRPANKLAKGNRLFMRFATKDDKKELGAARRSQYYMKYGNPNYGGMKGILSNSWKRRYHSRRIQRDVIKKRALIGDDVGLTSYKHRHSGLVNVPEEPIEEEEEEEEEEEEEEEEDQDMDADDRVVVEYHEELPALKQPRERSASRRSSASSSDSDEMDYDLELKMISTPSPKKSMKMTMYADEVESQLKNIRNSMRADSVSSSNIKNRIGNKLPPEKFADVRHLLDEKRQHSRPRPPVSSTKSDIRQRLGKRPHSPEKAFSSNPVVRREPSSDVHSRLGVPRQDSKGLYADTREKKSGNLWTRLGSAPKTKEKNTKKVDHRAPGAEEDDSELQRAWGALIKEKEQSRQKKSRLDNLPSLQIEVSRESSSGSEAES

The chains behind the UniProt entries cited, without tags or fusion partners.
UniProt Q6NZY4: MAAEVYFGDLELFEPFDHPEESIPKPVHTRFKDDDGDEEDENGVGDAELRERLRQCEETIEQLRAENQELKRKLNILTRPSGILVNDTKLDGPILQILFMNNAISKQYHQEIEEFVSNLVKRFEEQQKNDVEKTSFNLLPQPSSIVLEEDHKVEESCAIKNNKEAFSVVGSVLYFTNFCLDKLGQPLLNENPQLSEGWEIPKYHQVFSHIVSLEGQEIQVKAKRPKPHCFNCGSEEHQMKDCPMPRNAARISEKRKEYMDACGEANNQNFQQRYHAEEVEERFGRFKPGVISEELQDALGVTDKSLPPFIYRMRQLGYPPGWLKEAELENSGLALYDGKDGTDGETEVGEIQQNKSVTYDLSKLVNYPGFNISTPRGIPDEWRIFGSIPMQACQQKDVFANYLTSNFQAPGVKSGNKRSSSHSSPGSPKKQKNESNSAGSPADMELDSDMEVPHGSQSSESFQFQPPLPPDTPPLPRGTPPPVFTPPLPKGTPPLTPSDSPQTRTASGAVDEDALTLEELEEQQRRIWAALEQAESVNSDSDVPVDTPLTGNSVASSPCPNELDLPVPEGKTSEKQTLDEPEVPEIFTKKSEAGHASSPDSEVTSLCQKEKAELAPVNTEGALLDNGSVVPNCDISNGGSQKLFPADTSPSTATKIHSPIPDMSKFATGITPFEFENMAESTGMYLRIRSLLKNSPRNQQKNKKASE
UniProt Q9H814: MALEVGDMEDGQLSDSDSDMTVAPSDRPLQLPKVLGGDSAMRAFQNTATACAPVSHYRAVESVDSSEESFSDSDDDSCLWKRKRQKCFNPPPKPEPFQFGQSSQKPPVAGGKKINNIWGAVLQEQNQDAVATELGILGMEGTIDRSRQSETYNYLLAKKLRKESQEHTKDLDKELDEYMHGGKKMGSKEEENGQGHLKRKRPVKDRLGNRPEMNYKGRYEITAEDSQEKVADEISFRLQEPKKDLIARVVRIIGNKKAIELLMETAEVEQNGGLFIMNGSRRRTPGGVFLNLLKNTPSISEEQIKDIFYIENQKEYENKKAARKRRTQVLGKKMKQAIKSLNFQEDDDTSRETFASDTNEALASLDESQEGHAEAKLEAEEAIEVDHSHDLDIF

T2: LAP-tagged NCBP2 (Nuclear Cap-Binding Protein 2) (UniProt P52298)
T2 sequence: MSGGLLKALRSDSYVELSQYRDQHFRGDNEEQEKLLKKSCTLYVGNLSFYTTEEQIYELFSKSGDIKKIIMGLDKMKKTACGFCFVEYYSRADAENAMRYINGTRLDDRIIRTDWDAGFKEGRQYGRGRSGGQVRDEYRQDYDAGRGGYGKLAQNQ

T3: LAP-tagged NCBP2 (Nuclear Cap-Binding Protein 2), P52298
T3 chain: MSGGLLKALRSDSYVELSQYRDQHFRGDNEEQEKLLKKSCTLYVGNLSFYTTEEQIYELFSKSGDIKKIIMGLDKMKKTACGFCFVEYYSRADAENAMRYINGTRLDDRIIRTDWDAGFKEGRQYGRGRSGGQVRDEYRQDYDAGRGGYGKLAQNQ

T4: LAP-tagged NCBP1 (Nuclear Cap-Binding Protein 1), Q09161
T4 chain: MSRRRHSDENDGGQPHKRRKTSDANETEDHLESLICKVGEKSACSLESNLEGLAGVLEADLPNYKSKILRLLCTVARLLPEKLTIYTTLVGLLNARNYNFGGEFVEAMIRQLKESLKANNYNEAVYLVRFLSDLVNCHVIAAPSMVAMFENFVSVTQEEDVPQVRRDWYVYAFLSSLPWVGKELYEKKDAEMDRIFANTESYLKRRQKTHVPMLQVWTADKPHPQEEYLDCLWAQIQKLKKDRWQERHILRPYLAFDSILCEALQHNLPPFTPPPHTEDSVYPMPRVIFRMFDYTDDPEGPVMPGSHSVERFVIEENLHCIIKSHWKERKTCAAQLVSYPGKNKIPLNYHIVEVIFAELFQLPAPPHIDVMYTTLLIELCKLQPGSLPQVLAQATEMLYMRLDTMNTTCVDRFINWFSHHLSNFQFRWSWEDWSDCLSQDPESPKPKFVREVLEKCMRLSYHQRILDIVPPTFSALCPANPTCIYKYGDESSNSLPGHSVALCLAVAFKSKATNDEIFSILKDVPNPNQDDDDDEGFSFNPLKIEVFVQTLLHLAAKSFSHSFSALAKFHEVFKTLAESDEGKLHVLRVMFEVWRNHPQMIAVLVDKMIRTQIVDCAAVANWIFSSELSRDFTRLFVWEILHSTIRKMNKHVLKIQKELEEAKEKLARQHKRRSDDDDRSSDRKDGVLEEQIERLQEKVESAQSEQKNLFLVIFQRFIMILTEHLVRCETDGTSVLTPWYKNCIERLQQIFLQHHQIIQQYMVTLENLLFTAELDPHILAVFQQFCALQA


Key:
Experiment in all cases: affinity purification with mass spectrometry; interaction screen: LAP-tagged NCBP1, NCBP2 or NCBP3 captured with anti-GFP beads from cryogrinded HeLa cell powder in six (NCBP1, NCBP2) or four (NCBP3) extraction conditions, against CTRL-LAP; label-free quantification
[1] = target: LAP-tagged NCBP1 (Nuclear Cap-Binding Protein 1) (UniProt Q09161)
[2] = target: T1, LAP-tagged NCBP3 (C17orf85)
[3] = target: T2, LAP-tagged NCBP2 (Nuclear Cap-Binding Protein 2)
[4] = target: T3, LAP-tagged NCBP2 (Nuclear Cap-Binding …); conditions: remark: other sources report otherwise
[5] = target: T4, LAP-tagged NCBP1 (Nuclear Cap-Binding …); conditions: remark: other sources report otherwise

Row | Molecule | binding [1] | binding [2] | binding [3] | binding [4] | binding [5]
1 | Nuclear Cap-Binding Protein 1 (NCBP1) (from UniProt Q09161 1-790) |  |  | binds |  | 
2 | ZCCHC8 (from UniProt Q6NZY4 1-707) | binds | no binding | binds |  | 
3 | RNPS1 (protein, UniProt Q15287 1-305) MDLSGVKKKSLLGVKENNKKSSTRAPSPTKRKDRSDEKSKDRSKDKGATKESSEKDRGRDKTRKRRSASSGSSSTRSRSSSTSSSGSSTSTGSSSGSSSSSASSRSGSSSTSRSSSSSSSSGSPSPSRRRHDNRRRSRSKSKPPKRDEKERKRRSPSPKPTKVHIGRLTRNVTKDHIMEIFSTYGKIKMIDMPVERMHPHLSKGYAYVEFENPDEAEKALKHMDGGQIDGQEITATAVLAPWPRPPPRRFSPPRRMLPPPPMWRRSPPRMRRRSRSPRRRSPVRRRSRSPGRRRHRSRSSSNSSR |  | binds |  |  | 

Continued, values first:

Row | binding [1] | binding [2] | binding [3] | binding [4] | binding [5] | Molecule
4 | binds | no binding | binds |  |  | PHAX (from UniProt Q9H814 1-394)
5 | binds |  | binds |  |  | ARS2/SRRT (protein, UniProt Q9BXP5 1-876) MGDSDDEYDRRRRDKFRRERSDYDRSRERDERRRGDDWNDREWDRGRERRSRGEYRDYDRNRRERFSPPRHELSPPQKRMRRDWDEHSSDPYHSGYEMPYAGGGGGPTYGPPQPWGHPDVHIMQHHVLPIQARLGSIAEIDLGVPPPVMKTFKEFLLSLDDSVDETEAVKRYNDYKLDFRRQQMQDFFLAHKDEEWFRSKYHPDEVGKRRQEARGALQNRLRVFLSLMETGWFDNLLLDIDKADAIVKMLDAAVIKMEGGTENDLRILEQEEEEEQAGKPGEPSKKEEGRAGAGLGDGERKTNDKDEKKEDGKQAENDSSNDDKTKKSEGDGDKEEKKEDSEKEAKKSSKKRNRKHSGDDSFDEGSVSESESESESGQAEEEKEEAEEALKEKEKPKEEEWEKPKDAAGLECKPRPLHKTCSLFMRNIAPNISRAEIISLCKRYPGFMRVALSEPQPERRFFRRGWVTFDRSVNIKEICWNLQNIRLRECELSPGVNRDLTRRVRNINGITQHKQIVRNDIKLAAKLIHTLDDRTQLWASEPGTPPLPTSLPSQNPILKNITDYLIEEVSAEEEELLGSSGGAPPEEPPKEGNPAEINVERDEKLIKVLDKLLLYLRIVHSLDYYNTCEYPNEDEMPNRCGIIHVRGPMPPNRISHGEVLEWQKTFEEKLTPLLSVRESLSEEEAQKMGRKDPEQEVEKFVTSNTQELGKDKWLCPLSGKKFKGPEFVRKHIFNKHAEKIEEVKKEVAFFNNFLTDAKRPALPEIKPAQPPGPAQILPPGLTPGLPYPHQTPQGLMPYGQPRPPILGYGAGAVRPAVPTGGPPYPHAPYGAGRGNYDAFRGQGGYPGKPRNRMVRGDPRAIVEYRDLDAPDDVDFF
6 |  |  |  | binds | binds | ZC3H18, Q86VM9 1-953 (protein) MDVAESPERDPHSPEDEEQPQGLSDDDILRDSGSDQDLDGAGVRASDLEDEESAARGPSQEEEDNHSDEEDRASEPKSQDQDSEVNELSRGPTSSPCEEEGDEGEEDRTSDLRDEASSVTRELDEHELDYDEEVPEEPAPAVQEDEAEKAGAEDDEEKGEGTPREEGKAGVQSVGEKESLEAAKEKKKEDDDGEIDDGEIDDDDLEEGEVKDPSDRKVRPRPTCRFFMKGNCTWGMNCRFIHPGVNDKGNYSLITKADPFPPNGAPPLGPHPLMPANPWGGPVVDEILPPPPPEPPTESAWERGLRHAKEVLKKATIRKEQEPDFEEKRFTVTIGEDEREFDKENEVFRDWNSRIPRDVRDTVLEPYADPYYDYEIERFWRGGQYENFRVQYTETEPYHNYRERERERERENRQRERERERERDRERERRQRERERERERERDKERQRRKEEWERERAKRDEKDRQHRDRDREKEREKEKGKPKPRSPQPPSRQAEPPKKEAATTGPQVKRADEWKDPWRRSKSPKKKLGVSVSPSRARRRRKTSASSASASNSSRSSSRSSSYSGSGSSRSRSRSSSYSSYSSRSSRHSSFSGSRSRSRSFSSSPSPSPTPSPHRPSIRTKGEPAPPPGKAGEKSVKKPAPPPAPPQATKTTAPVPEPTKPGDPREARRKERPARTPPRRRTLSGSGSGSGSSYSGSSSRSRSLSVSSVSSVSSATSSSSSAHSVDSEDMYADLASPVSSASSRSPAPAQTRKEKGKSKKEDGVKEEKRKRDSSTQPPKSAKPPAGGKSSQQPSTPQQAPPGQPQQGTFVAHKEIKLTLLNKAADKGSRKRYEPSDKDRQSPPPAKRPNTSPDRGSRDRKSGGRLGSPKPERQRGQNSKAPAAPADRKRQLSPQSKSSSKVTSVPGKASDPGAASTKSGKASTLSRREELLKQLKAVEDAIARKRAKIPGKA
7 |  | no binding |  |  |  | ZC3H18 (protein, UniProt Q86VM9 1-953) MDVAESPERDPHSPEDEEQPQGLSDDDILRDSGSDQDLDGAGVRASDLEDEESAARGPSQEEEDNHSDEEDRASEPKSQDQDSEVNELSRGPTSSPCEEEGDEGEEDRTSDLRDEASSVTRELDEHELDYDEEVPEEPAPAVQEDEAEKAGAEDDEEKGEGTPREEGKAGVQSVGEKESLEAAKEKKKEDDDGEIDDGEIDDDDLEEGEVKDPSDRKVRPRPTCRFFMKGNCTWGMNCRFIHPGVNDKGNYSLITKADPFPPNGAPPLGPHPLMPANPWGGPVVDEILPPPPPEPPTESAWERGLRHAKEVLKKATIRKEQEPDFEEKRFTVTIGEDEREFDKENEVFRDWNSRIPRDVRDTVLEPYADPYYDYEIERFWRGGQYENFRVQYTETEPYHNYRERERERERENRQRERERERERDRERERRQRERERERERERDKERQRRKEEWERERAKRDEKDRQHRDRDREKEREKEKGKPKPRSPQPPSRQAEPPKKEAATTGPQVKRADEWKDPWRRSKSPKKKLGVSVSPSRARRRRKTSASSASASNSSRSSSRSSSYSGSGSSRSRSRSSSYSSYSSRSSRHSSFSGSRSRSRSFSSSPSPSPTPSPHRPSIRTKGEPAPPPGKAGEKSVKKPAPPPAPPQATKTTAPVPEPTKPGDPREARRKERPARTPPRRRTLSGSGSGSGSSYSGSSSRSRSLSVSSVSSVSSATSSSSSAHSVDSEDMYADLASPVSSASSRSPAPAQTRKEKGKSKKEDGVKEEKRKRDSSTQPPKSAKPPAGGKSSQQPSTPQQAPPGQPQQGTFVAHKEIKLTLLNKAADKGSRKRYEPSDKDRQSPPPAKRPNTSPDRGSRDRKSGGRLGSPKPERQRGQNSKAPAAPADRKRQLSPQSKSSSKVTSVPGKASDPGAASTKSGKASTLSRREELLKQLKAVEDAIARKRAKIPGKA
